The target of this experiment is MLL3 (mixed lineage leukemia 3) construct consisting of residues 4690-4911 (Win motif and SET domain), wild type (human) (UniProt Q8NEZ4). In words: SAXS; small angle x-ray scattering at 4 °C, two protein concentrations; 25 mM Tris pH 7.5, 300 mM NaCl, 1 μM ZnCl2, 5% glycerol, 3 mM DTT; samples passed over S200 size exclusion; molecular weight by the Porod volume method; both purified. For orientation: SEC sorts molecules by how far they enter the pores of the column.

These are yes or no findings as the source states them, for the method shown.

Take “MLL3 (mixed lineage leukemia 3) construct consisting of residues 4690-4911 (Win motif and SET domain), wild type (from UniProt Q8NEZ4 4690-4911) (domain or fragment)”: the binding result is “no binding”.

Values taken from paper PMC4646236.
